{
  "source": "paper PMC7886514",
  "target": "T1, I-κB kinase-ε (mouse (endogenous in heart tissue)) (UniProt Q9R0T8)",
  "T1 sequence": "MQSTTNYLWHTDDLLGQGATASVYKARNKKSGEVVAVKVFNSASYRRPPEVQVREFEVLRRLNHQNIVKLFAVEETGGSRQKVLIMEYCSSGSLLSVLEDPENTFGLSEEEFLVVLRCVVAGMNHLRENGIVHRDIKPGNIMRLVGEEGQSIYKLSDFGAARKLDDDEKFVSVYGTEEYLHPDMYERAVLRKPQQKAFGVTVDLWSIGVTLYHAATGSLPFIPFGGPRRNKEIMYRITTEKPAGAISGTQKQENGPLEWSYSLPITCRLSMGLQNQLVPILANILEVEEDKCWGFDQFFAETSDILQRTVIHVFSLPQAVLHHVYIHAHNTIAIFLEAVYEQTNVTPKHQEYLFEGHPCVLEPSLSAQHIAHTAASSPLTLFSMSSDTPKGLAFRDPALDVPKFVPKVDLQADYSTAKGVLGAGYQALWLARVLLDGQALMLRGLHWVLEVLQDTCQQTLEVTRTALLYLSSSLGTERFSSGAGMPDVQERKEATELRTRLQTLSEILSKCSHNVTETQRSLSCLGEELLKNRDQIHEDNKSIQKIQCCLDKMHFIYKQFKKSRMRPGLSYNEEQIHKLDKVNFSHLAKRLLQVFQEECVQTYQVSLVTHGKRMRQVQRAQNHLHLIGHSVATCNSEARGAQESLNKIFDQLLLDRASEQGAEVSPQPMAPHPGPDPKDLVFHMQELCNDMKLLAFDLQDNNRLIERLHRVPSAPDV",
  "assay": "co-IP; heart tissue proteins of WT mice stimulated with saline or Ang II for 8 weeks; precleared with Protein G magnetic beads; precipitated with 3 μg anti-IKKε antibody overnight; immunoblot with anti-IKKε, anti-MEK1/2, anti-ERK1/2 and anti-p38 antibodies",
  "note": "Results are given in words; binding and its absence hold for the method and conditions named. Binding seen in cells or lysates may run through a third protein. Binding calls can cover weak binding; strength is not graded here.",
  "data": [
    {"substance": "extracellular signal-regulated kinase (mouse (endogenous in heart tissue))", "values": [
      {"measurement": "binding", "value": "binds"}
    ]}
  ]
}
